From PubChem BioAssay AID1458 (National Center for Advancing Translational Sciences (NCATS), 2008)
About 5,900 (2.8%) of roughly 210,000 compounds were called active. Roughly 5% stayed inconclusive and do not appear here. Calls follow the shape of the dose curve; as a rule, active = well fitted activation curve with a large enough effect; inconclusive = small, poorly fitted or top-dose-only effect; inactive = no such curve, though single readings can be large or run the other way. This is a selection; strong and weak results do not stand in their true shares. The source gives no active or inactive call for entries shown without one.

Assay: qHTS Assay for Enhancers of SMN2 Splice Variant Expression; also: nearly all actives have a fitted effect of over 55% in size; as to activity change, positive = activation: % of control where 0% means no effect
Conditions: HEK293 SMN2-luciferase splicing reporter, luminescence, 30-36 h; activity change, positive = activation: at 46.1 µM (top of the series) unless noted
Summary of the method: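 HEK293 cells carry an SMN2 minigene-luciferase reporter in which exon 7 inclusion puts luciferase in frame. Cells were seeded at 2000 cells/well, attached for 10-12 hours, then exposed to compounds for 30-36 hours at 37C before ONE-Glo luminescence.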
Potency is read from the fitted curve at half-maximal effect.

SMILES	activity change, positive = activation	Potency
CC(C)NC(=O)Cn1c(SCC(=O)N2CCc3ccccc3C2)nc2ccccc21	45.1%	
Cc1cccc(NC(=O)N(Cc2cc3cc(C)cc(C)c3[nH]c2=O)CC2COCCO2)c1 (configuration not stated)	-35.4%	
CCOC(=O)c1ccccc1NS(=O)(=O)c1ccccc1	41.7%	
CCCOC(=O)c1ccc(NC(=O)Cc2csc(C)n2)cc1	-30.7%	
CCN1C(C(=O)c2ccccc2)=C(OC(=O)c2ccc(Cl)cc2)c2ccccc2S1(=O)=O	inactive: -30.4%	
Fc1ccccc1CSc1nnnn1-c1ccc2c(c1)OCO2	40.3%	
CC(C)NS(=O)(=O)c1ccc(OCC(=O)N2CCN(c3cccc(Cl)c3)CC2)cc1	inactive: -62.8%	
CCOC(=O)CCc1c(C)nc2cc(-c3ccc(F)cc3)[nH]n2c1=O	29.6%	
Cc1ccc(OCC(=O)O/N=C(\N)c2ccccn2)cc1		active: 12.6 µM
COc1cc([N+](=O)[O-])ccc1N/C=C/C(=O)c1cccs1		active: 1.58 µM
Cc1ccc(C)c(OCCOCCN2CC(C)OC(C)C2)c1C (configuration not stated)	-41.3%	
Cc1[nH]n(-c2cccc(Cl)c2)c(=O)c1/C=N/n1c(C)nc2ccccc2c1=O	-59.2%	
Cc1ccc(/C=C/C(=O)N2CCc3ccccc32)o1	314%	
Cc1cccc(NC(c2cccc(Cl)c2)c2ccc3cccnc3c2O)n1 (configuration not stated)	inactive: -31.5%	
CCOc1ccc(NC(=O)CSc2nnc3c(C)cc4ccccc4n23)cc1	37.2%	
CC(C)(C)C1CCc2[nH]nc(C(=O)O)c2C1 (configuration not stated)	20.3%	
COC(=O)c1cc2c(=O)n3cccc(C)c3nc2n(Cc2cccnc2)c1=N	51.8%	
Cc1ccc(N2CC(C(=O)Nc3nnc(C(C)C)s3)CC2=O)cc1 (configuration not stated)	34.5%	
COc1ccc(NC(=O)NCCC2=CCCCC2)cc1		active: 12.6 µM
Cc1onc(-c2ccccc2)c1C(=O)c1c[nH]c(C(=O)NCc2ccccn2)c1	inactive: -54.4%	
CC(C)(C)c1ccc(OCc2ccc(C(=O)N/N=C3\CC4CC=CC34)cc2)cc1 (configuration not stated)	-69.6%	
CC(C)(C)C1CCc2onc(C(=O)Nc3cccc(O)c3)c2C1 (configuration not stated)	-34%	

Compounds shown so far that contain fluorine:
SMILES	activity change, positive = activation	Potency
Fc1ccccc1CSc1nnnn1-c1ccc2c(c1)OCO2	40.3%	
CCOC(=O)CCc1c(C)nc2cc(-c3ccc(F)cc3)[nH]n2c1=O	29.6%	

(listing goes on)

SMILES	activity change, positive = activation	Potency
Cc1ccc(C(=O)n2c3ccccc3c3ccccc32)cc1	-14.8%	
Cc1ccc(C(=O)c2sc3nc4c(cc3c2N)CCC4)cc1		active: 7.94 µM
CCOc1ccc(C(=O)N/N=C/c2cc([N+](=O)[O-])cs2)cc1	-20.2%	
O=C(Cn1c(C(F)(F)F)nc2ccccc21)Nc1ccccc1C(=O)O	166%	
Cc1cccc(C)c1NC(=O)N1CCN(c2nc3ccccc3s2)CC1	-80.3%	
Cn1c(=NC(=O)c2ccccc2[N+](=O)[O-])sc2cc(S(C)(=O)=O)ccc21		active: 2.24 µM
CC(C)c1ccc(/C=N/NC(=O)c2ccccc2Cl)cc1	-45.5%	
CC1=NN(C(=O)c2cccnc2)C(O)(C(F)(F)F)C1 (configuration not stated)	-44.3%	
O=C1C2=C(S[C@@H]3O[C@H](CO)[C@@H](O)[C@H](O)[C@H]3O2)C(=O)c2ccccc21	inactive: -28%	
O=C(Nc1ccc2c(c1)OCCO2)c1ccccn1		active: 1.26 µM
COc1ccc(CN(C(=O)c2ccc(OCC(C)C)cc2)C2CCS(=O)(=O)C2)cc1 (configuration not stated)	inactive: -35.3%	
O=S(=O)(c1ccccc1Cl)N1CCCC1c1nc(-c2ccccc2Cl)no1 (configuration not stated)	-45.7%	
CC(C)c1ccc(N=C2NN=C(c3cccs3)CS2)cc1		active: 12.6 µM
O=C(NCc1ccco1)c1cc2n(n1)C(C(F)(F)F)CC(c1ccc(Br)cc1)N2 (configuration not stated)	-21.3%	
CC(C)=C1SC(N2CCN(c3ccc(Cl)cc3)CC2)=NC1=O	-55.3%	
CC(Cc1ccccc1)NC(=O)c1ccc([N+](=O)[O-])cc1 (configuration not stated)		active: 14.1 µM
COc1ccc(OCC(=O)c2c(O)c3ccccc3oc2=O)cc1	47.2%	
COc1cccc(CNc2cnc3ccccc3c2)c1O		active: 3.55 µM
CC1(C)OC(=O)N(c2ccccc2)C12C=Cc1c(ccc3ccccc13)O2 (configuration not stated)	inactive: -30.5%	
C=CCSc1nc2ccccc2n1C(=O)/C=C/c1cc(OC)c(OC)c(OC)c1	-81.7%	
Cc1c(C#N)c(NC(=O)CCl)n(Cc2cccs2)c1C	inactive: -103%	
CC(C)(C)C(=O)Nc1ccc(C(=O)OC2CCCCC2)cc1		active: 35.5 µM

SMILES	activity change, positive = activation	Potency
C=CCNC(=S)N/N=C/c1ccc(-c2cc(Cl)ccc2Cl)o1	35.1%	
CCc1ccccc1NC(=O)CN(C)C(=O)Cn1ncc(Cl)c(Cl)c1=O	-105%	
Clc1ccccc1Cn1c(/C=C/c2ccco2)nc2ccccc21	inactive: -0.206%	
C=CCc1cccc(/C=N/NC(=O)CNc2cccc3ccccc23)c1O	-77.9%	
COc1cc(/C=N/N2CCOCC2)ccc1OCc1ccc(Cl)cc1		active: 11.2 µM
COc1ccc2nc(NC(C)=O)sc2c1		active: 14.1 µM
CCOc1ccc(N(Cc2ccccc2)C(=O)c2nc(S(C)(=O)=O)ncc2Cl)cc1	inactive: -86.3%	
Cc1nc(N2CCC(C)CC2)c2oc3ccccc3c2n1	inactive: -42.8%	
CC1CCN(c2nc3ccc(C(=O)N4CCN(c5ccccc5)CC4)cc3s2)CC1	inactive: -60.9%	
Cc1ccc(C(=O)N2c3ccc(F)cc3CCC2C)o1 (configuration not stated)	30.9%	
N#Cc1ccc(CSc2nnc(Cc3cccs3)n2Cc2ccco2)cc1	39.2%	
CC(C)(C)NC[C@H](O)c1cc(O)cc(O)c1	inactive: 14.6% [at 20.6 µM]	
CCS(=O)(=O)N1Cc2ccccc2CC1C(=O)Nc1nnc(SCc2ccc(F)cc2)s1 (configuration not stated)	-87.8%	
CCc1nnc(NC(=O)CSc2nc3c(cc2C#N)CCC3)s1		active: 12.6 µM
CCCC(=O)Nc1ccc(C(=O)N/N=C/c2ccc([N+](=O)[O-])o2)cc1	-91.5%	
CCS(=O)(=O)c1ccc(C(=O)Nc2ccccc2)c(Cl)c1Cl	-76.7%	
Cc1ccc2[nH]c(=O)c(CN(CC3CCCO3)S(=O)(=O)c3cccc4nsnc34)cc2c1 (configuration not stated)	34%	
O=[N+]([O-])c1cccc(/C([O-])=C(/C(=S)Nc2cccc3ccccc23)[n+]2ccccc2)c1	23.7%	
CS(=O)(=O)NCCSCc1ccccc1	38.2%	
Cc1cccc(Nc2nc(-c3ccccc3)c(C(=O)Nc3cccnc3)s2)c1	inactive: -91.7%	
CCCCOC(=O)c1ccc(NS(=O)(=O)c2c(C)nc3scc(C)n3c2=O)cc1	inactive: -41.7%	
O=C(Nc1ccc(-c2noc(-c3cccs3)n2)cc1)c1cccnc1		active: 1.26 µM

Two successive records from above, quoted:
SMILES	activity change, positive = activation	Potency
CC(C)(C)NC[C@H](O)c1cc(O)cc(O)c1	inactive: 14.6% [at 20.6 µM]	
CCS(=O)(=O)N1Cc2ccccc2CC1C(=O)Nc1nnc(SCc2ccc(F)cc2)s1 (configuration not stated)	-87.8%	

The list continues:

SMILES	activity change, positive = activation	Potency
CCCCC(=O)Nc1cccc(-c2nc3ncccc3o2)c1	inactive: -28.6%	
Cc1ccc(CC(=O)Nc2nc3c(s2)CCCC3)cc1	260%	
Cc1cccc(/C=C/c2ccccc2)n1	inactive: 0.477%	
CCSC1=N/C(=C\c2ccc3c(c2)OCO3)C(=O)S1	-14.1%	
Cc1c(C=O)n(C)n(-c2ccccc2)c1=O	inactive: 22.8%	
CC(Oc1ccccc1)C(=O)NC1=NCCS1 (configuration not stated)		active: 14.1 µM
COc1cc2c(C(=O)N3CCN(c4ccccc4F)CC3)cn(C)c(=O)c2cc1OC	inactive: -45.6%	
C=CCn1c(Cc2csc(N)n2)nnc1SCc1ccc(C(=O)OC)cc1	34.8%	
CCOC(=O)c1ccc(NC(=S)N(CCN(C)C)Cc2cccs2)cc1		active: 3.55 µM
COc1ccc(OC)c2[nH]c(=O)c(CCNC(=O)C(=O)c3c(C)[nH]c4ccccc34)cc12	33.7%	
COC(=O)c1c(N)c2ccccc2[nH]c1=O	39.9%	
Cn1cc([N+](=O)[O-])c(C(=O)Nc2nc(-c3ccc(Cl)cc3)cs2)n1	inactive: -58.1%	
Cc1cccc(Cn2c(SCc3ccc(C(=O)N4CCCCCC4)cc3)nc3ccncc32)c1	inactive: -64.8%	
CCc1ccc2c(c1)c1nnc(NN)nc1n2CC	inactive: -30%	
COc1ccccc1-n1cc(-c2ccc(C)cc2)nc1S(=O)(=O)CC(=O)Nc1ccccc1C(F)(F)F	38%	
CCOC(=O)C1(CCSC)NC(c2ccco2)C2C(=O)N(CC)C(=O)C21 (configuration not stated)	38.1%	
O=[N+]([O-])c1ccc(Oc2cccc3cccnc23)c([N+](=O)[O-])c1	-77.8%	
O=C1c2ccccc2C(=O)N1CC1c2ccccc2CCN1S(=O)(=O)c1cnc[nH]1 (configuration not stated)	29.9%	
Cc1cc(N2CCCC2)c(F)cc1/C=C\[N+](=O)[O-]	-99.6%	
CCn1cc(C(=O)OCC(=O)NCc2ccc3c(c2)OCO3)c(=O)c2ccc(C)nc21	36.1%	
CN(c1ccccc1C(=O)N1CCN(c2cccc(Cl)c2)CC1)S(C)(=O)=O	28.6%	
CN1CCN(CC#CCn2c3ccccc3c3ccccc32)CC1	54%	

SMILES	activity change, positive = activation	Potency
O=C(CCC(=O)c1cccs1)NC1CCCCCC1	53.4%	
Cc1cccc(C)c1Nc1c(-c2ccccc2F)nc2cccc(C)n12	inactive: -103%	
COc1cc(S(=O)(=O)NCCOC23CC4CC(CC(C4)C2)C3)c(OC)cc1Cl	inactive: -57.9%	
O=P(COCCO)(c1ccccc1)c1ccccc1	37.3%	
Cc1ccc(N2CCN(c3ccc(NCc4nc5ccccc5n4C)cc3)CC2)cc1	inactive: -24.9%	
CC1(C)Cc2c(sc3nnn(Cc4ccccc4)c(=O)c23)CO1	-49.8%	
O=C(Nc1nccs1)c1ccc(-c2ccc([N+](=O)[O-])cc2)o1		active: 12.6 µM
O=C(NCCCl)c1ccc(OCc2ccccc2)cc1Cl		active: 12.6 µM
CCOC(=O)c1ccc(NS(=O)(=O)c2cnc[nH]2)cc1	23.2%	
CCc1cc2c(=O)c(-c3nc4ccccc4[nH]3)coc2cc1OC(=O)N1CCOCC1	inactive: -34.8%	
O=C(Nc1ccc(S(=O)(=O)N2CCc3ccccc32)cc1)c1ccc2c(c1)OCO2	inactive: -30.6%	
CCN(C(=O)C1CCC(CNS(=O)(=O)c2cccc3nsnc23)CC1)c1ccc(C)c(C)c1 (configuration not stated)	inactive: -7.15%	
O=C(NC1CCCCCC1)c1ccc(OCC2CCCO2)cc1 (configuration not stated)		active: 12.6 µM
CCCCc1c(C)c(C#N)c2[nH]c3ccccc3n2c1=O	-62.2%	
Cc1ncc([N+](=O)[O-])n1CCO	0.915%	
CSc1nnc(NC(=O)c2ccc(S(=O)(=O)N(C)C)cc2)s1		active: 12.6 µM
c1ccc(-c2csc3ncnc(NCCN4CCOCC4)c23)cc1	-66.5%	
O=C(NC12CC3CC(CC(C3)C1)C2)c1ccc(-c2ccc(Br)cc2)o1		active: 15.8 µM
COCCCNC(=O)c1ccc(Cn2c(=O)c3ccccc3n(CC(=O)NCc3ccco3)c2=O)cc1	64%	
